Patent US20240317809A1, “Engineered Antimicrobial Peptides and Usage Thereof” (University of Pittsburgh-Of the Commonwealth System of …, priority 2021, published 2024)
At least one compound was matched to its structure with a doubt left.

Key:
Experiment in all cases: MIC, CLSI protocol, planktonic ESKAPE pathogens
K. pneumoniae = type: cell-based, Klebsiella pneumoniae; conditions: N=8
Description: (§1) Standard Clinical and Laboratory Standards Institute (CLSI) protocol was used to measure the minimum inhibitory concentration (MIC) against each organism. Biofilm model: Implant material was prepared from 0.6 mm diameter stainless steel Kirschner wire and plated at 0.5×10^6 CFU/ml. Mature biofilm developed over 48 hours, wires were washed, and then treated with 1 mg/mL WLBU-2 (SEQ ID: 10) in PBS (pH 7.4) for 5, 15, and 30 minutes. Quantitative culture (colony forming unit, CFU) analysis was then completed.
(§2) ESKAPE pathogens were selected from a large clinical library of MDR and non-MDR organisms (n>100 organism). […] At 15 minutes, organisms had greater than a 3 log reduction in biofilm mass (E. faecium: 3 log 10; S. aureus: 5 log 10; K. pneumoniae 6 log 10; A. baumannii 5 log 10; P. aeruginosa 8 log 10; E. cloacae 7 log 10; E. coli 5 log 10).

A. baumannii = type: cell-based, Acinetobacter baumannii; conditions: N=24
Description: as §1, §2

P. aeruginosa = type: cell-based, Pseudomonas aeruginosa; conditions: N=20
Description: as §1, §2

E. cloacae = type: cell-based; conditions: N=2
Description: as §1, §2

Row | Compound | minimum inhibitory concentration (MIC) (K. pneumoniae) | minimum inhibitory concentration (MIC) (A. baumannii) | minimum inhibitory concentration (MIC) (P. aeruginosa) | minimum inhibitory concentration (MIC) (E. cloacae)
1 | C[C@@H](O)[C@H]1C(=O)N2C(C(=O)O)=C(SCCN=CN)C[C@H]12 [IPM, imipenem] | 2->8 | 1->8 | 4->8 | –
2 | C[C@H]1COc2c(N3CCN(C)CC3)c(F)cc3c(=O)c(C(=O)O)cn1c23 [LVX, levofloxacin] | .06->4 | 4->4 | 0.5->4 | 0.5->4
